These are yes or no findings as the source states them, for the method shown.
Tests used:
[1] = target: T1, APP1 (390-412) peptide labelled with rhodamine (human); experiment: far-Western, overlay or dot blot; mixtures of a fluorescein-labelled (green) and a rhodamine-labelled (red) peptide spotted on a nitrocellulose membrane; yellow colour read as binding; both purified
T1 sequence (peptide, rhodamine (labelled with rhodamine isothiocyanate; site not stated)): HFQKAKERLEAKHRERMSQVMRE

[2] = target: T2, Tau1 (19-34) peptide labelled with rhodamine (human); experiment: as above
T2 sequence (peptide, rhodamine (labelled with rhodamine isothiocyanate; site not stated)): GLGDRKDQGGYTMHQD

binding [1]: no binding
binding [2]: no binding
Binder: ATVIVITLVMLKKKQYTS (fluorescein (labelled with fluorescein isothiocyanate; site not stated)) [APP2 (713-730) peptide labelled with fluorescein]
